Assay results reported in article PMC9925821.
Numbering of substitutions follows the chain as printed. No constants are given. Whether binding was seen depends on the method and setting. In cells and extracts the contact can be indirect. For some of these results: Binding can be weak; no strength is given. For some of these results: Tags and fused reporters may be left off the sequences shown.

Amino acid sequences for entries named in this document (tags omitted). A change or cut given only in a name is not applied to a line headed by its entry.
UniProt Q96KN1: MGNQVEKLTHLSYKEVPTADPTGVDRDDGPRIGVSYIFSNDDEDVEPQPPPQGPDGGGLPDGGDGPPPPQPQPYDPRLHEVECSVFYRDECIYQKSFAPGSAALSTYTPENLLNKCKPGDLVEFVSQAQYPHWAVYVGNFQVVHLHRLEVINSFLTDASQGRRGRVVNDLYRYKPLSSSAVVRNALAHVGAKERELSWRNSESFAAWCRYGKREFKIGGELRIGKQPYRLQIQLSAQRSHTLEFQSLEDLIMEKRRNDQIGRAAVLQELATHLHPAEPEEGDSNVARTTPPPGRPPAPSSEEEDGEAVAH

Legend:
[1] = molecular target: T1, Flag-FKBP51 (True-ORF-Myc-DDK (Flag)-tagged human FKBP51-transcript variant 1) (human) (UniProt Q13451); assay: co-IP; A375 cells transfected with Flag-tagged FKBP51 forms (with or without HA-PHLPP, HA-K63-Ub, siPHLPP RNAs), immunoprecipitated with anti-Flag antibody, IgG or empty vector as control, immunoblot
T1 sequence: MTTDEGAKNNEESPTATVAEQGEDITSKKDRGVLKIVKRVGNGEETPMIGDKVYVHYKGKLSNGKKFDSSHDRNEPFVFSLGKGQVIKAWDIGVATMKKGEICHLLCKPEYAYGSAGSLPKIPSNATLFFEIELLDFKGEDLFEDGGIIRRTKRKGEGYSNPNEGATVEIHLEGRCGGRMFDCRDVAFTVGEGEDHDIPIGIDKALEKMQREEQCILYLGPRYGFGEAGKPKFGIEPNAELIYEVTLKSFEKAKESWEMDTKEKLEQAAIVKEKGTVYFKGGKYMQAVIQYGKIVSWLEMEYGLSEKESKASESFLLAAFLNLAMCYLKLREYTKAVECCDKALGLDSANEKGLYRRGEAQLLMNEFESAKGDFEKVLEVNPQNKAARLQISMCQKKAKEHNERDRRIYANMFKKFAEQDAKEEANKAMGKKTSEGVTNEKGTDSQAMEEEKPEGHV

[2] = molecular target: T2, Flag-tagged FKBP51-TPRmut (K352A/R356A) (human) (UniProt Q13451); assay: as above
T2 sequence: T1 sequence with K352A, R356A

[3] = molecular target: T3, FKBP51s (spliced FKBP51 isoform) (human (endogenous in A375)) (UniProt Q13451); assay: co-IP; endogenous FKBP51 and FKBP51s immunoprecipitated from two glioblastoma cell lines (Fig. S2d), immunoblot for PHLPP
T3 sequence: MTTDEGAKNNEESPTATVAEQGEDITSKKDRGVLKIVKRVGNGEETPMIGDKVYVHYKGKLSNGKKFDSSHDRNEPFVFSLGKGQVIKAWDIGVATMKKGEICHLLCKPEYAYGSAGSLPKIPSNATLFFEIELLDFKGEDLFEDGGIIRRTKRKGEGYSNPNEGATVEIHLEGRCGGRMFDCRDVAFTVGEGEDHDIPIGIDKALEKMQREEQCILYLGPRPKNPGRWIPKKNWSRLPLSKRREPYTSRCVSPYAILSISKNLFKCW

[4] = molecular target: T4, FKBP51 (canonical isoform) (human (endogenous in A375)) (UniProt Q13451); assay: as above
T4 sequence: T1 sequence

[5] = molecular target: T3, FKBP51s (spliced FKBP51 isoform) (human (endogenous in A375)); assay: co-IP; endogenous FKBP51 or FKBP51s immunoprecipitated from A375 whole lysates (modified RIPA buffer) with anti-FKBP51 or anti-FKBP51s antibody, Protein-A/G agarose, IgG as control, immunoblot; in some panels cells treated with 0.5 and 1 µM 17-AAG for 16 h
[6] = molecular target: T4, FKBP51 (canonical isoform) (human (endogenous in A375)); assay: as above

| binding [1] | binding [2] | binding [3] | binding [4] | binding [5] | binding [6] | Substance |
| --- | --- | --- | --- | --- | --- | --- |
| binds | – | – | – | – | – | NSE2 (from UniProt Q96KN1) |
| binds | binds | no binding | binds | no binding | binds | PH domain leucine-rich repeat protein phosphatase (PHLPP) (human (endogenous in A375)) |
